Experimental findings from paper PMC9637080 are described below.

Amino acid sequences for entries named in this document (tags omitted).
UniProt Q13464: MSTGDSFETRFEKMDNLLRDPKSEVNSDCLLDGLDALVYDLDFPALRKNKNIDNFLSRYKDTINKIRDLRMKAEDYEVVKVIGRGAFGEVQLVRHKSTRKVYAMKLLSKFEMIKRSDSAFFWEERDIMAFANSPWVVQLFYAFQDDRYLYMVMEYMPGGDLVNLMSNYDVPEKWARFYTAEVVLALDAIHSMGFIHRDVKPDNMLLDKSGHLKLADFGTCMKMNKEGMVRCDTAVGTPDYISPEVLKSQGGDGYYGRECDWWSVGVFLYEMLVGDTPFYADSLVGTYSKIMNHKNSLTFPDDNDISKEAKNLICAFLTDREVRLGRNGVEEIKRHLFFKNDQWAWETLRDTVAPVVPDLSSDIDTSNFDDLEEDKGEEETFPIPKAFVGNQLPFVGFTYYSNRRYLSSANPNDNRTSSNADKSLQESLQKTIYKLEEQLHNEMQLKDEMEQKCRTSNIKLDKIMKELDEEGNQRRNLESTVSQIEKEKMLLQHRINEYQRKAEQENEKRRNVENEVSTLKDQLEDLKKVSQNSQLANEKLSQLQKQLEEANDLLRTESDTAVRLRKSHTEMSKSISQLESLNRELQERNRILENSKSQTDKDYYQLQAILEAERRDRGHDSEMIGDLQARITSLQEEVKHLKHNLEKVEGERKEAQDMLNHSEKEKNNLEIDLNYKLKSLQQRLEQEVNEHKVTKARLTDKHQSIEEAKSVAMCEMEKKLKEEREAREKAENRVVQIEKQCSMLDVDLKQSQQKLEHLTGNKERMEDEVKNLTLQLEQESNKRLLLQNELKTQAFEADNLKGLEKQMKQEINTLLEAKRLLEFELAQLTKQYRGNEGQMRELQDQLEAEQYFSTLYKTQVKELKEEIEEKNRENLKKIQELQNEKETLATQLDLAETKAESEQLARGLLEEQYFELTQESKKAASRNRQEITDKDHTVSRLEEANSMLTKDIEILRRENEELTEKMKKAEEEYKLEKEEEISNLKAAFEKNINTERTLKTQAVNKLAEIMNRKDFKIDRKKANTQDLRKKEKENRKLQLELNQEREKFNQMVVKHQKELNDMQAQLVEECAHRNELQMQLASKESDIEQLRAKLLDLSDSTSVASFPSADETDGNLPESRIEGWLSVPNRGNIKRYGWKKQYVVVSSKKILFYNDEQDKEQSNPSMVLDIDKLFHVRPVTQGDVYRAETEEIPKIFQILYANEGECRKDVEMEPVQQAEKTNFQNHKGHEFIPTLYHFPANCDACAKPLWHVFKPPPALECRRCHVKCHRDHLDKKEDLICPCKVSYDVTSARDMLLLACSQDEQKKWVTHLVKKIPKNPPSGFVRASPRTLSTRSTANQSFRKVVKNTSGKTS

Results are given in words; binding and its absence hold for the method and conditions named. In cells and extracts the contact can be indirect. Some results given as binding are weak or reduced against the parent protein; the word gives no strength.

This assay has as its target Rho-associated kinase 1 (ROCK1) (human (endogenous in LSCC cells)) (UniProt Q13464). Put plainly: co-IP; immobilized affinity-purified antibodies (10-75 ug; anti-ROCK1, anti-PYROXD1), immobilized anti-IgG as control; LSCC cell lysate incubated for 1 day at 4 °C; Western blotting.

B1: pyridine nucleotide-disulfide oxidoreductase domain 1 (PYROXD1) (enzyme, UniProt Q8WU10 1-500)
chain: MEAARPPPTAGKFVVVGGGIAGVTCAEQLATHFPSEDILLVTASPVIKAVTNFKQISKILEEFDVEEQSSTMLGKRFPNIKVIESGVKQLKSEEHCIVTEDGNQHVYKKLCLCAGAKPKLICEGNPYVLGIRDTDSAQEFQKQLTKAKRIMIIGNGGIALELVYEIEGCEVIWAIKDKAIGNTFFDAGAAEFLTSKLIAEKSEAKIAHKRTRYTTEGRKKEARSKSKADNVGSALGPDWHEGLNLKGTKEFSHKIHLETMCEVKKIYLQDEFRILKKKSFTFPRDHKSVTADTEMWPVYVELTNEKIYGCDFIVSATGVTPNVEPFLHGNSFDLGEDGGLKVDDHMHTSLPDIYAAGDICTTSWQLSPVWQQMRLWTQARQMGWYAAKCMAAASSGDSIDMDFSFELFAHVTKFFNYKVVLLGKYNAQGLGSDHELMLRCTKGREYIKVVMQNGRMMGAVLIGETDLEETFENLILNQMNLSSYGEDLLDPNIDIEDYFD
B1: the binding entry is given as “binds”.
